Patent US5234907A, “Synthetic vasoactive intestinal peptide analogs” (Hoffmann-La Roche Inc., priority 1991, dated 1993)
At least one peptide structure holds a part that was inferred or is arguable (an end, a ring closure or a residue).

What was measured:
guinea pigs = assay: In vivo bronchodilator activity by tracheal instillation against histamine-induced bronchoconstriction; set-up: species or system guinea pig; conditions: 100 μl, anesthetized male Hartley guinea pigs, histamine challenge 50 μg/kg i.v., inhibition of tracheal pressure increase
Experimental: The in vivo bronchodilator activity of VIP analogs in guinea pigs was assessed by the tracheal instillation route of administration. This technique utilized male guinea pigs (Hartley strain, Charles River) weighing 400-600 g. Animals were anesthetized with urethane (2 g/kg) intraperitoneally and a polyethylene cannula was inserted into the jugular vein for intravenous drug administration.
The animals were tracheotomized and dosing solutions of distilled water or test compound dissolved in distilled water were administered into the trachea, approximately three-quarter the distance to the carina with a pipette. […] The animals were challenged with a maximal constrictory dose of histamine (50 μg/kg, i.v.) and tracheal pressure (cm of water) was recorded from a Statham pressure transducer (P 32 AA).
The change in tracheal pressure was averaged for at least 3 control and 3 drug-treated animals and percent inhibition was calculated. The relative potency of compounds administered by the instillation route was determined by administering various doses of test compound and calculating the median inhibitory dose (ID50 value). […]
For determination of the time course of inhibition for various compounds, the time between administration of compound and challenge with histamine was varied. The time course of activity was calculated as the time when inhibition decreased to 40%.

[1] = test system: guinea pig tracheal smooth muscle; assay: Tracheal relaxant activity of VIP analogs on isolated guinea pig tracheal rings; type: cell-based; conditions: cumulative concentration response; responses as % of maximum response to VIP (10^-6 M=100%); at least three tissues pooled; linear regression
Experimental: The relaxant activity of the VIP analogs was studied in a model utilizing guinea pig trachea. [Wasserman, M. A. et al., in Vasoactive Intestinal Peptide, S. I. Said, ed., Raven Press, N.Y. 1982, pp 177-184]; All tissues were taken from male albino guinea pig weighing 400-600 g, anesthesized with urethane (2 g/kg, i.p.). After exanguination, the trachea were removed and divided into four ring segments (3 mm length). Each ring was suspended by 30 gauge stainless steel wires in a 10 mL jacketed tissue bath and attached via 4-0 silk thread to a Grass force displacement transducer (model FT03C, Grass Instruments Co., Quincy, Ma), for isometric recording of tension. […] Responses were recorded on an 8 channel and a 4 channel Hewlett-Packard (model 7702B and 7754A, respectively) recorder (Hewlett-Packard, Paramus, N.J.). […] Frequent readjustments of tension were required during the 60 minute stabilization period which followed. […]
Cumulative concentration response curves were obtained for each tissue by successive […] increases in the bath concentration of VIP or VIP analogs according to the method of VanRossum [Arch. […] To minimize variability between tissues, relaxant responses were expressed as a percentage of the maximum response obtained to VIP (10^-6 M=100%) added at the end of each concentration response experiment. […]

For `CC[C@H](C)[C@H](NC(=O)[C@H](CO)NC(=O)[C@H](CC(N)=O)NC(=O)[C@H](CC(C)C)NC(=O)[C@H](Cc1ccc(O)cc1)NC(=O)[C@H](CCCCN)NC(=O)[C@H](CCCCN)NC(=O)[C@@H](NC(=O)[C@H](C)NC(=O)[C@H](CCSC)NC(=O)[C@H](CCC(N)=O)NC(=O)[C@H](CCCCN)NC(=O)[C@H](CCCNC(=N)N)NC(=O)[C@H](CC(C)C)NC(=O)[C@H](CCCNC(=N)N)NC(=O)[C@@H](NC(=O)[C@H](Cc1ccc(O)cc1)NC(=O)[C@H](CC(N)=O)NC(=O)[C@H](CC(=O)O)NC(=O)[C@@H](NC(=O)[C@H](Cc1ccccc1)NC(=O)[C@@H](NC(=O)[C@H](C)NC(=O)[C@H](CC(=O)O)NC(=O)[C@H](CO)NC(=O)[C@@H](N)Cc1c[nH]cn1)C(C)C)[C@@H](C)O)[C@@H](C)O)C(C)C)C(=O)N[C@@H](CC(C)C)C(=O)N[C@@H](CC(N)=O)C(N)=O` [VIP, Vasoactive intestinal peptide], the “Bronchodilator activity in guinea pigs, ED50” value (guinea pigs) was 7.3 µg and the EC50 [1] was 10 nM.
